# Results as given in the supplement of paper PMC10849652.
# Amino acid sequences for entries named in this document (tags omitted). A change or cut given only in a name is not applied to a line headed by its entry.
# UniProt Q9Y5K8, whole entry, looked up: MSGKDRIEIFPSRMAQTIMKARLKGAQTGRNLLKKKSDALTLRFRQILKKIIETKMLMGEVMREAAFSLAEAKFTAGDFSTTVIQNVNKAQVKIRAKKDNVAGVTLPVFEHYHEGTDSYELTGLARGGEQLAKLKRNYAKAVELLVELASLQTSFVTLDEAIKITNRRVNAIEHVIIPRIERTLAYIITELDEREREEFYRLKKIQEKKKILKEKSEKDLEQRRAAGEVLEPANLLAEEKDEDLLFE
# UniProt B2RBV5: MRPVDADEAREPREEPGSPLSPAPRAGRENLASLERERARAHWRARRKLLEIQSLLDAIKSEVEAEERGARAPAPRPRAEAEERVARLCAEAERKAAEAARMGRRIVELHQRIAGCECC
# UniProt O75882: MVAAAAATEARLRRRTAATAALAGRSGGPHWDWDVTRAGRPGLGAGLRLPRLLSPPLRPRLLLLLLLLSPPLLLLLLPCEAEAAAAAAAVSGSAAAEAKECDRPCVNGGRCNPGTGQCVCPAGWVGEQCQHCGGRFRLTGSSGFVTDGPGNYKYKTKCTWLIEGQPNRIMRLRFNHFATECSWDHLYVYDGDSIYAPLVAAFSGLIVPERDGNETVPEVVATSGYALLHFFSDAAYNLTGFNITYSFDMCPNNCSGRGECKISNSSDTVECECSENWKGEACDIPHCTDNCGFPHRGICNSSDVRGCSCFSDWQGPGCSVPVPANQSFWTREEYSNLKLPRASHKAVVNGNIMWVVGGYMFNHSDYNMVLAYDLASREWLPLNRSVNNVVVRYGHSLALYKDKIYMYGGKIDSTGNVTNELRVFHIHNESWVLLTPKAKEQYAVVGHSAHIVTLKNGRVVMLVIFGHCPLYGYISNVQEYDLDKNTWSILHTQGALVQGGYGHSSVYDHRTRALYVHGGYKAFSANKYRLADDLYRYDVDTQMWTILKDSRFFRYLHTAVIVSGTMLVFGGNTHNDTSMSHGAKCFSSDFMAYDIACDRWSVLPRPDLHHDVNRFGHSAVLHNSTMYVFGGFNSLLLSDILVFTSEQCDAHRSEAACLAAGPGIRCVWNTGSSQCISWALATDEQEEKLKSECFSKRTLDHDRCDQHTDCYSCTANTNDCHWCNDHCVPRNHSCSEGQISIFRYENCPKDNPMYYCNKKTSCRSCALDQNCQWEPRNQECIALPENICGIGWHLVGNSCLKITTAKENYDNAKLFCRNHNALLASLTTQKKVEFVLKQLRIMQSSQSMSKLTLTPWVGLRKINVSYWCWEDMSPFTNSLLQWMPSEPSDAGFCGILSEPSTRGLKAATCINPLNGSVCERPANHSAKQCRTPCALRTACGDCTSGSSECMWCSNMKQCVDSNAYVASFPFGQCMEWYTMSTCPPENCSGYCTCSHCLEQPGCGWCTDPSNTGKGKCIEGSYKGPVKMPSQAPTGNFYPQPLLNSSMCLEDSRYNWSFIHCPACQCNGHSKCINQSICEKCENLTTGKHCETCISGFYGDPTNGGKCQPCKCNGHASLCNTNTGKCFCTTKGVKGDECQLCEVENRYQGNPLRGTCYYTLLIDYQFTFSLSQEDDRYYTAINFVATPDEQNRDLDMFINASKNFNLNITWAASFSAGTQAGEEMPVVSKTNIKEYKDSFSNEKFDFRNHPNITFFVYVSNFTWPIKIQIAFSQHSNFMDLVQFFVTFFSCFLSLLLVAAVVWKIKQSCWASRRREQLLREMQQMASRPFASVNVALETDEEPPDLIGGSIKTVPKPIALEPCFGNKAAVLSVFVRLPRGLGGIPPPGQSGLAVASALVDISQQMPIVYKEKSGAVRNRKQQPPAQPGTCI
# UniProt O75947: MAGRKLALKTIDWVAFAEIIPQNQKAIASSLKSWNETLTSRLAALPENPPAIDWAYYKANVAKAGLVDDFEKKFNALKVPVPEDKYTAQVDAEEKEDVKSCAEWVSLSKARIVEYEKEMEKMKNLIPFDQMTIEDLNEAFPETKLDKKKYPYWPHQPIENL
# UniProt Q67FW5: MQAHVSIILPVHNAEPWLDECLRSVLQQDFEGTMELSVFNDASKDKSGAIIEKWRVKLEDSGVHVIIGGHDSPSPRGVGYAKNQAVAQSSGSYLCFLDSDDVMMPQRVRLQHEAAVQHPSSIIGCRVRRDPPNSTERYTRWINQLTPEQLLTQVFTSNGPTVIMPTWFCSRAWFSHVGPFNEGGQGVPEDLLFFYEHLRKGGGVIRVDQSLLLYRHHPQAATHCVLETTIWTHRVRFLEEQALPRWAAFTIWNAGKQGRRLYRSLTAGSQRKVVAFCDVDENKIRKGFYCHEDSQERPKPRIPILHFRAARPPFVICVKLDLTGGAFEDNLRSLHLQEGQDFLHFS
# UniProt Q99700, whole entry, looked up: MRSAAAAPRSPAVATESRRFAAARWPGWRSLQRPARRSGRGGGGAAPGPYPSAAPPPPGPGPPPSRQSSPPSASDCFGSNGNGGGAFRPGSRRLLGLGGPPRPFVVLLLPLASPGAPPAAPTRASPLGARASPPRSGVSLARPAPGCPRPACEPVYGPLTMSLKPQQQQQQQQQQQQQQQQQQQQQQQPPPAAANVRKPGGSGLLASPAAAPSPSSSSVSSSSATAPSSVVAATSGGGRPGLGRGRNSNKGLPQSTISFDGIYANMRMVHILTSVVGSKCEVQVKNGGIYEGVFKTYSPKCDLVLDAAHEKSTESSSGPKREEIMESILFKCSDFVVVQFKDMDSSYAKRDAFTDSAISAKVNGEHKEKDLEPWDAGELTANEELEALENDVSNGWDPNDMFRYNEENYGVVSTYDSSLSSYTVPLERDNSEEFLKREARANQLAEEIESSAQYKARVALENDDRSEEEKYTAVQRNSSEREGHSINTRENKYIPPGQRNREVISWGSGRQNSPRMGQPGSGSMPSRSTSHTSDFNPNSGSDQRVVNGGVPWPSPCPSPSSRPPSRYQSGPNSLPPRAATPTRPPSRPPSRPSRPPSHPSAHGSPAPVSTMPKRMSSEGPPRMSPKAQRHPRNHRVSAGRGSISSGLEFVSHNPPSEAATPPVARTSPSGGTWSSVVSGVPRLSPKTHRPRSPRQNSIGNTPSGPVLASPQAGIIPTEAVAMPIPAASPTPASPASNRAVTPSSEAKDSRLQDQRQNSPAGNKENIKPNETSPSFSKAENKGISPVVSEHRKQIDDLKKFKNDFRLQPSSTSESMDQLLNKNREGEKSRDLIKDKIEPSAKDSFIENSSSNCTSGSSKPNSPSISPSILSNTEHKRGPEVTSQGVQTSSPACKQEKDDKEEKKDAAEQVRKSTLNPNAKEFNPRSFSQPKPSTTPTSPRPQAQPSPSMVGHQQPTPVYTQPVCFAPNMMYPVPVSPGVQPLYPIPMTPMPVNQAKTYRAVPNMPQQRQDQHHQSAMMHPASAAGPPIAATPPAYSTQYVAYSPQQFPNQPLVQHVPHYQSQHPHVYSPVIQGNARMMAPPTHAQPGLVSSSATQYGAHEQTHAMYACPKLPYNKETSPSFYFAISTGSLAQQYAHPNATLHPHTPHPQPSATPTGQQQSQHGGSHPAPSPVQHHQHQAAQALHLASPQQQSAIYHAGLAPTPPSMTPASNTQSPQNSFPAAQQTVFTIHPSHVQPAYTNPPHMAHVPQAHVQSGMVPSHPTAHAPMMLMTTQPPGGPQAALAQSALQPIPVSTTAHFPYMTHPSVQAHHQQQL
# UniProt P27449, whole entry, looked up: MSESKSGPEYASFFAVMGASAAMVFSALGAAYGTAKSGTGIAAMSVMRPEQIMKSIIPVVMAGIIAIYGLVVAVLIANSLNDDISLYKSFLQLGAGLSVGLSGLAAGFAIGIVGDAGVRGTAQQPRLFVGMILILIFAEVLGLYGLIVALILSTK
# UniProt Q2TAZ0: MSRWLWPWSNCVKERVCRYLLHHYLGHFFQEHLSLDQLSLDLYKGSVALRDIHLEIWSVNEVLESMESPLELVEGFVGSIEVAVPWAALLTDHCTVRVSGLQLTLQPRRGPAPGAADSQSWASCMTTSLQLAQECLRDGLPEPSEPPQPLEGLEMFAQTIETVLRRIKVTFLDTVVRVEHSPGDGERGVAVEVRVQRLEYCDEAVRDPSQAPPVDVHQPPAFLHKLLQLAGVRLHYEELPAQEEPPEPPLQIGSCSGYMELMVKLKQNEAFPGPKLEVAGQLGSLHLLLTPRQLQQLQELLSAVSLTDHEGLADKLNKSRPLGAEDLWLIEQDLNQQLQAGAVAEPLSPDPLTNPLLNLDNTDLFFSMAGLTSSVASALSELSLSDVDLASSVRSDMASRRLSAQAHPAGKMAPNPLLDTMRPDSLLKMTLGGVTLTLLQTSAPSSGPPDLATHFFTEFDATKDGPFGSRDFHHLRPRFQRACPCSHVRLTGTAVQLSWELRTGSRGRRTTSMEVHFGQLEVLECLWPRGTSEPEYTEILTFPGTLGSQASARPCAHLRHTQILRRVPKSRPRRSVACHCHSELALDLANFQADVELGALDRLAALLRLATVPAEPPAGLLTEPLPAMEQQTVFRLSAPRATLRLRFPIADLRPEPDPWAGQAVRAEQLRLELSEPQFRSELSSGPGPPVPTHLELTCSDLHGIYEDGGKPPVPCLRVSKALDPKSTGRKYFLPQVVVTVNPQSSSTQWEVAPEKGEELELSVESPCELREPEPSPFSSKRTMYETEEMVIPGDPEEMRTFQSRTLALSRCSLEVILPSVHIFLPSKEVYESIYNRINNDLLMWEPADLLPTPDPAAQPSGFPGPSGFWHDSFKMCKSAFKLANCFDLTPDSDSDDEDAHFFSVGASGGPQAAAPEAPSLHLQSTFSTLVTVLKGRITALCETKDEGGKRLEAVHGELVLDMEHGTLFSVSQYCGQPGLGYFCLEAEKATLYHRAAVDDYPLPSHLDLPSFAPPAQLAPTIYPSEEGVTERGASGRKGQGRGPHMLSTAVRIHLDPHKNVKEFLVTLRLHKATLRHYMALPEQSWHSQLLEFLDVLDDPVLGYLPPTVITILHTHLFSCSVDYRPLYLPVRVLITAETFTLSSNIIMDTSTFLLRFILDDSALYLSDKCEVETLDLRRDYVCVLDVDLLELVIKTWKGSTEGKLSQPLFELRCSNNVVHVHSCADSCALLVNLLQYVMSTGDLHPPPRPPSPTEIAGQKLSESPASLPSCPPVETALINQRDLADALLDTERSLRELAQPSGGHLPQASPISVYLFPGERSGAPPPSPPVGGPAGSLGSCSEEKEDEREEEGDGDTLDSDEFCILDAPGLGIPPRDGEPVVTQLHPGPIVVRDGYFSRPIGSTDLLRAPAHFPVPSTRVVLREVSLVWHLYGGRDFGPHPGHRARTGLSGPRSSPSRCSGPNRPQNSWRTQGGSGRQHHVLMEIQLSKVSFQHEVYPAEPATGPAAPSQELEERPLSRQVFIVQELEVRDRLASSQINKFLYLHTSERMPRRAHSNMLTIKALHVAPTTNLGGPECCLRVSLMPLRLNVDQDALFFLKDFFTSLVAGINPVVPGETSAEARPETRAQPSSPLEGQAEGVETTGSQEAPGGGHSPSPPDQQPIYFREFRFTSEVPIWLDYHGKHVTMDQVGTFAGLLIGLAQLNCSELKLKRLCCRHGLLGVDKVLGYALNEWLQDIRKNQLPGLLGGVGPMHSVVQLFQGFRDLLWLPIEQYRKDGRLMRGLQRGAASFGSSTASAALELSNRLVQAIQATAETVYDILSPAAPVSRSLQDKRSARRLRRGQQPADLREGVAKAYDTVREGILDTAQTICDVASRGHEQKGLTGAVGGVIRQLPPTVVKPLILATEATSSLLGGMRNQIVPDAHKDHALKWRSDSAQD
# UniProt Q13825: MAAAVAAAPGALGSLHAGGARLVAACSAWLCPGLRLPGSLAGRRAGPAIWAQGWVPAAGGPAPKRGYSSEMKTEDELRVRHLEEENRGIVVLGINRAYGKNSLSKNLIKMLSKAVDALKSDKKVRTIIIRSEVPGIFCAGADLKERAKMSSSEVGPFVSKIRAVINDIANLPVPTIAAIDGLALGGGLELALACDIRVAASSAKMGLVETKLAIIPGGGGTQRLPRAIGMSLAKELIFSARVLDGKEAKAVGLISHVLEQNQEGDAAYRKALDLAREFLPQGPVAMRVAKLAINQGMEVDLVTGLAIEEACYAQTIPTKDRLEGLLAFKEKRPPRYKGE
# UniProt P36542: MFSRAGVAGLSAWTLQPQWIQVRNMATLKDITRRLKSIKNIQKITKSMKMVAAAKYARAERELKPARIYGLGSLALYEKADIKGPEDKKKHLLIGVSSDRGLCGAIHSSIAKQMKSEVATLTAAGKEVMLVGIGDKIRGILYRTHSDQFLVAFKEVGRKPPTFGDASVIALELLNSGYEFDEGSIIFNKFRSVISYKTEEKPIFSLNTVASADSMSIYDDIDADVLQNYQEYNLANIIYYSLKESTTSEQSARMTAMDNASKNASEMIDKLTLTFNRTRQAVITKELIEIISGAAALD
# UniProt Q96GX2: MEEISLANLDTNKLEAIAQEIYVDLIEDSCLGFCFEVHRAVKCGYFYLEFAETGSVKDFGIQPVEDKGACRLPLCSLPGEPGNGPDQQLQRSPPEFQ
# Some of the results follow.
# Experiments:
# Test in all cases: log2 fold change, soluble protein after heating vs DMSO (PISA); higher = thermal stabilisation; K562 lysate, 10 uM; active = over 0.2 and 3.5 SD of the protein, either way, in both replicates (recomputed)
# [1] = compound: CS(=O)(=O)CCNCc1ccc(-c2ccc3ncnc(Nc4ccc(OCc5cccc(F)c5)c(Cl)c4)c3c2)o1 [lapatinib]
# Procedure, shortened: (§1)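 A 30 min treatment with 10 μM compound was applied to crude K562 extract at 1 mg/mL protein in PBS pH 7.4 with 1 mM MgCl2. Heating for 3 min spanned 48°C-58°C, after which aliquots were pooled, adjusted to 0.5% NP-40 at 4°C and spun at 21,000xg for 90 min. TMTpro 16plex LC-MS/MS of the supernatant, with channel sums equalised, gave values recorded as log-two fold change in thermal stability against solvent controls, from duplicates.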
# [2] = compound: CS(=O)(=O)N1CCN(Cc2cc3nc(-c4cccc5[nH]ncc45)nc(N4CCOCC4)c3s2)CC1 [pictilisib]
# Procedure, shortened: as §1
# [3] = compound: C[C@@H](Oc1cc(-c2cnn(C3CCNCC3)c2)cnc1N)c1c(Cl)ccc(F)c1Cl [crizotinib]
# Procedure, shortened: as §1
# [4] = compound: C[C@H](C1=CC=C(C=C1)C(=O)NC2=C3C=CNC3=NC=C2)N
# Procedure, shortened: as §1
# [5] = compound: C[C@H](Nc1ncnc2nc[nH]c12)c1cc2cccc(Cl)c2c(=O)n1-c1ccccc1 [duvelisib]
# Procedure, shortened: as §1
# [6] = compound: Cc1cc(Nc2cc(CN3CCOCC3)c3nc(C)c(Cc4ccc(Cl)cc4F)n3n2)n[nH]1 [gandotinib]
# Procedure, shortened: as §1
# [7] = compound: Cc1cc(Nc2cc(N3CCN(C)CC3)nc(Sc3ccc(NC(=O)C4CC4)cc3)n2)n[nH]1 [tozasertib]
# Procedure, shortened: as §1
# [8] = compound: Cc1ccc(-n2nc(C(C)(C)C)cc2NC(=O)Nc2ccc(OCCN3CCOCC3)c3ccccc23)cc1 [doramapimod]
# Procedure, shortened: as §1
# [9] = compound: Cc1ccc(NC(=O)c2ccc(CN3CC[C@H](N(C)C)C3)c(C(F)(F)F)c2)cc1Nc1nccc(-c2cncnc2)n1 [bafetinib]
# Procedure, shortened: as §1
# [10] = compound: Cc1cccc(CC(=O)N2CCc3c2ccc(-c2cn(C)c4ncnc(N)c24)c3F)n1
# Procedure, shortened: as §1
# [11] = compound: Cc1cn(-c2cc(NC(=O)c3ccc(C)c(Nc4nccc(-c5cccnc5)n4)c3)cc(C(F)(F)F)c2)cn1 [nilotinib]
# Procedure, shortened: as §1
# [12] = compound: Cc1nc(Nc2n[nH]c3c2CN(C(=O)N[C@H](CN(C)C)c2ccccc2)C3(C)C)c2sccc2n1
# Procedure, shortened: as §1
# [13] = compound: Cc1nc(Nc2ncc(C(=O)Nc3c(C)cccc3Cl)s2)cc(N2CCN(CCO)CC2)n1 [dasatinib]
# Procedure, shortened: as §1
# [14] = compound: Cc1ncc(-c2ccnc(Nc3ccc(S(C)(=O)=O)cc3)n2)n1C(C)C
# Procedure, shortened: as §1
# [15] = compound: Cn1cc(-c2ccc3c(c2)CCN3C(=O)Cc2cccc(C(F)(F)F)c2)c2c(N)ncnc21
# Procedure, shortened: as §1
# [16] = compound: Cn1cc(CNCC2CCN(c3ncc(C(=O)NO)cn3)CC2)c2ccccc21 [quisinostat]
# Procedure, shortened: as §1
# [17] = compound: Cn1cncc1[C@@](N)(c1ccc(Cl)cc1)c1ccc2c(c1)c(-c1cccc(Cl)c1)cc(=O)n2C [tipifarnib]
# Procedure, shortened: as §1
# [18] = compound: NC(=O)Nc1cc(-c2cccc(F)c2)sc1C(=O)N[C@H]1CCCNC1
# Procedure, shortened: as §1
# [19] = compound: NC(=O)c1cnc(N[C@@H]2CCCC[C@@H]2N)nc1Nc1cccc(-n2nccn2)c1
# Procedure, shortened: as §1
# [20] = compound: NC1(c2ccc(-c3nc4ccn5c(=O)[nH]nc5c4cc3-c3ccccc3)cc2)CCC1
# Procedure, shortened: as §1
Target,log2 fold change [1],log2 fold change [2],log2 fold change [3],log2 fold change [4],log2 fold change [5],log2 fold change [6],log2 fold change [7],log2 fold change [8],log2 fold change [9],log2 fold change [10],log2 fold change [11],log2 fold change [12],log2 fold change [13],log2 fold change [14],log2 fold change [15],log2 fold change [16],log2 fold change [17],log2 fold change [18],log2 fold change [19],log2 fold change [20]
ATG3 (UniProt Q9NT62),inactive: 0.001,inactive: 0.024,inactive: -0.024,inactive: -0.039,inactive: 0.02,inactive: 0.016,inactive: 0.037,inactive: -0.012,inactive: -0.04,inactive: 0.008,inactive: -0.014,inactive: 0.024,inactive: 0.004,inactive: -0.018,inactive: 0.013,inactive: 0.068,inactive: 0.025,inactive: -0.012,inactive: 0,inactive: 0.025
"ATP11C, A0A067XG54",inactive: 0.076,inactive: -0.032,inactive: 0.129,inactive: -0.064,inactive: -0.106,inactive: 0.009,,inactive: 0.044,inactive: 0.03,inactive: 0.052,,,inactive: -0.081,,inactive: 0.096,inactive: -0.113,,inactive: -0.132,inactive: -0.057,inactive: 0.011
ATP6V1D (UniProt Q9Y5K8),inactive: 0.002,inactive: 0.01,inactive: 0.052,inactive: 0.117,inactive: 0.009,inactive: 0,inactive: -0.002,inactive: -0.026,inactive: -0.013,inactive: -0.047,inactive: -0.014,inactive: 0.028,inactive: 0.046,inactive: 0.004,inactive: 0.01,inactive: 0.072,inactive: 0.002,inactive: -0.01,inactive: -0.014,inactive: 0.01
ATP5F1B (UniProt H0YI37),inactive: 0.087,inactive: 0.089,inactive: -0.763,,inactive: 0.132,,,inactive: -0.066,inactive: -0.158,,inactive: 0.162,inactive: -0.01,inactive: -0.036,inactive: 0.168,inactive: -0.18,inactive: -1.26,inactive: 0.128,inactive: 0.395,inactive: 0.337,inactive: -0.672
NA (UniProt B2RBV5),inactive: -0.049,inactive: 0,inactive: 0.017,,,,inactive: -0.092,inactive: 0.007,inactive: 0.037,,inactive: 0.01,inactive: -0.025,,inactive: -0.356,,inactive: -0.044,inactive: 0.026,inactive: -0.197,inactive: -0.182,inactive: 0.014
ATRN (UniProt O75882),inactive: 0.018,inactive: -0.151,inactive: 0.042,inactive: -0.008,inactive: 0.013,inactive: -0.027,inactive: -0.055,inactive: -0.048,inactive: 0.054,inactive: -0.009,,,inactive: -0.038,,inactive: 0.066,inactive: -0.068,,inactive: -0.001,inactive: -0.121,inactive: -0.064
ATP5PD (UniProt O75947),inactive: -0.032,inactive: -0.058,inactive: 0.042,inactive: 0.009,inactive: -0.007,inactive: -0.005,inactive: 0.036,inactive: -0.027,inactive: 0.006,inactive: 0.003,inactive: 0.02,inactive: 0.013,inactive: 0.024,inactive: 0.016,inactive: -0.018,inactive: -0.017,inactive: 0.007,inactive: -0.037,inactive: 0,inactive: 0.023
B3GNTL1 (UniProt Q67FW5),inactive: 0.048,inactive: 0.05,inactive: -0.047,inactive: -0.073,,inactive: 0.038,inactive: 0.029,inactive: 0.06,inactive: 0.144,inactive: 0.172,,,,,,inactive: -0.066,,inactive: 0.036,inactive: 0.041,
B3GNT5 (UniProt Q9BYG0),inactive: -0.121,inactive: -0.295,,inactive: -0.066,inactive: 0.012,inactive: -0.075,inactive: -0.122,,inactive: 0.076,inactive: -0.062,,,inactive: 0.055,,inactive: 0.003,,,,inactive: 0.072,inactive: -0.081
ATXN7L3 isoform 2 (UniProt Q14CW9),inactive: 0.051,inactive: -0.355,inactive: -0.075,inactive: -0.107,inactive: -0.164,inactive: 0.15,,inactive: 0.035,inactive: 0.123,inactive: -0.163,inactive: 0.023,inactive: -0.046,inactive: 0.14,inactive: 0.054,inactive: 0.017,inactive: 0.084,inactive: 0.032,inactive: 0.043,inactive: 0.047,inactive: 0.048
ATP1B1 (UniProt P05026),inactive: -0.055,inactive: 0.025,inactive: 0.024,inactive: 0.075,inactive: 0.03,inactive: 0.088,,inactive: -0.037,inactive: 0.066,inactive: -0.122,inactive: -0.157,inactive: 0.04,inactive: 0.04,inactive: 0.043,inactive: 0.005,inactive: 0.055,inactive: -0.114,inactive: 0.007,inactive: -0.059,inactive: 0.055
ATXN2 (UniProt Q99700),inactive: 0.006,inactive: -0.042,inactive: 0.028,inactive: 0.019,inactive: 0.025,inactive: 0.001,inactive: 0.011,inactive: 0.017,inactive: -0.012,inactive: -0.006,inactive: -0.04,inactive: 0.023,inactive: 0.023,inactive: -0.003,inactive: 0.047,inactive: -0.065,inactive: 0.014,inactive: 0.045,inactive: 0.011,inactive: -0.028
AURKA (UniProt O14965),inactive: -0.101,inactive: 0.112,,inactive: -0.071,inactive: -0.006,active: 1,,inactive: -0.061,inactive: -0.09,inactive: -0.062,inactive: -0.065,inactive: 0.209,inactive: 0.226,inactive: 0.174,inactive: 0.027,inactive: -0.117,inactive: -0.088,inactive: 0.18,inactive: -0.04,inactive: -0.05
ATG7 (UniProt O95352),inactive: 0.006,inactive: -0.002,inactive: -0.015,inactive: -0.037,inactive: 0,inactive: -0.035,inactive: -0.015,inactive: 0.02,inactive: -0.024,inactive: 0.006,inactive: 0.02,inactive: -0.03,inactive: -0.026,inactive: -0.032,inactive: 0.037,inactive: -0.039,inactive: 0.03,inactive: 0.058,inactive: 0.01,inactive: -0.02
ATP6V0C (UniProt P27449),inactive: -0.098,inactive: 0.091,inactive: -0.01,inactive: -0.262,inactive: 0.117,inactive: 0.32,inactive: -0.203,inactive: 0.001,inactive: 0.01,inactive: 0.073,,,inactive: 0.1,,inactive: -0.009,inactive: -0.062,,inactive: -0.004,inactive: -0.069,inactive: 0.039
ATG2A (UniProt Q2TAZ0),inactive: -0.148,inactive: 0.175,,,,,,,inactive: 0.047,,inactive: 0.143,inactive: -0.111,,inactive: 0.1,,,inactive: -0.248,,inactive: -0.009,inactive: -0.08
AUH (UniProt Q13825),inactive: 0.165,inactive: -0.131,inactive: 0.012,inactive: 0.144,inactive: 0.135,inactive: -0.117,active: 0.455,inactive: 0.023,inactive: -0.003,inactive: -0.345,,,inactive: -0.274,,inactive: 0.14,inactive: -0.002,,inactive: -0.018,inactive: 0.193,inactive: -0.066
ATP5F1C isoform 2 (UniProt P36542),,inactive: -0.008,inactive: 0.075,,,,,inactive: 0.146,inactive: -0.106,,,,,,,inactive: -0.294,,inactive: -0.193,,
ATXN7L3B (UniProt Q96GX2),,inactive: 0.057,inactive: -0.014,inactive: 0.043,inactive: 0.027,inactive: 0.048,inactive: 0.154,inactive: 0.017,inactive: -0.073,inactive: 0.038,inactive: 0.043,inactive: 0.068,inactive: 0.036,inactive: 0.085,inactive: 0.021,inactive: -0.111,inactive: 0.009,inactive: 0.002,,inactive: 0.014
ASB3 isoform 3 (UniProt Q9Y575),,inactive: 0.194,,,,,inactive: -0.004,,inactive: -0.069,,inactive: -0.019,inactive: -0.029,,inactive: -0.136,,,inactive: 0.021,,,

# Taken from the entries so far for reference:
Target,log2 fold change [1],log2 fold change [2],log2 fold change [3],log2 fold change [4],log2 fold change [5],log2 fold change [6],log2 fold change [7],log2 fold change [8],log2 fold change [9],log2 fold change [10],log2 fold change [11],log2 fold change [12],log2 fold change [13],log2 fold change [14],log2 fold change [15],log2 fold change [16],log2 fold change [17],log2 fold change [18],log2 fold change [19],log2 fold change [20]
ATG7 (UniProt O95352),inactive: 0.006,inactive: -0.002,inactive: -0.015,inactive: -0.037,inactive: 0,inactive: -0.035,inactive: -0.015,inactive: 0.02,inactive: -0.024,inactive: 0.006,inactive: 0.02,inactive: -0.03,inactive: -0.026,inactive: -0.032,inactive: 0.037,inactive: -0.039,inactive: 0.03,inactive: 0.058,inactive: 0.01,inactive: -0.02
ATP6V0C (UniProt P27449),inactive: -0.098,inactive: 0.091,inactive: -0.01,inactive: -0.262,inactive: 0.117,inactive: 0.32,inactive: -0.203,inactive: 0.001,inactive: 0.01,inactive: 0.073,,,inactive: 0.1,,inactive: -0.009,inactive: -0.062,,inactive: -0.004,inactive: -0.069,inactive: 0.039
